Measurements as given in patent US5008401A, “Cyanine compounds” (Asahi Chemical Co., Ltd., priority 1990, dated 1991).

Columns and labels:
[1] = Test for reflectivity and absorptivity of dye coating at 780 nm; type: physicochemical; settings: coating 600 to 700 Å on acrylic resin plate, semiconductor laser beam at 780 nm
Method: Each of cyanine dyes as shown below in Table 1 was dissolved in dichloromethane to a concentration of 20 g/l. The solution was applied to an acrylic resin plate by a spin coater rotated at 1500 rpm to form a layer of 600 to 700 Å thickness, and the coating was dried. The reflectivity and absorptivity of the coating were measured by irradiation of semiconductor laser beam at 780 nm over the coating surface.

[2] = Test for optimum recording power of recording medium formed using the dye; settings: 780 nm, linear velocity 1.2 m/s, 450 kHz, CN ratio at least 45 dB, error rate up to 50 cps
Method: Information was recorded on a photosensitive recording medium formed using each of the cyanine dyes shown below in Table 1 by irradiation of semiconductor laser beams at 780 nm at a recording power of 0.2 mW, a liner velocity of 1.2 m/s and a frequency of 450 kHz and the recorded information was reproduced at a reproducing power of 0.2 mW. The optimum recording power is one at which errors occur at the lowest frequency (CN ratio of at least 45 dB and error rate of up to 50 cps) when the recording is reproduced at varying recording powers of from 2.0 to 8.0 mW and the recorded information was reproduced by irradiation of semiconductor laser beams at 780 nm at a reproducing power of 0.2 mW.

Compound CCOc1ccc2c(c1)C(C)(C)C(=CC=CC=CC=CC1=[N+](C)c3ccc(OCC)cc3C1(C)C)N2C [Compound A, reference compound] has an Absorptivity [1] of 58%, a Reflectivity [1] of 24% and an Optimum recording power [2] of 3.6 mW.
For CCOc1ccc2c(c1)C(C)(C)C(=CC=CC=CC1=[N+](C)c3ccc(OCC)cc3C1(C)C)N2C [Compound B, reference compound], the Absorptivity [1] was 7%, the Reflectivity [1] was 40% and the Optimum recording power [2] was “at least 6.0 mW”.
CCN1C(=CC=CC=CC2=[N+](CC)c3c(OC)cc(OC)cc3C2(C)C)C(C)(C)c2cc(OC)cc(OC)c21 [Preparation Example 1] gave an Absorptivity [1] of 19%, a Reflectivity [1] of 42% and an Optimum recording power [2] of 2.7 mW.
COCN1C(=CC=CC=CC2=[N+](COC)c3cc(OC)c(OC)cc3C2(C)C)C(C)(C)c2cc(OC)c(OC)cc21 [Preparation Example 3] gave an Absorptivity [1] of 18%, a Reflectivity [1] of 41% and an Optimum recording power [2] of 2.8 mW.
CCCN1C(=CC=CC=CC2=[N+](CCC)c3cc(C)c(OC)cc3C2(C)C)C(C)(C)c2cc(OC)c(C)cc21 [Preparation Example 6] showed an Absorptivity [1] of 13%, a Reflectivity [1] of 40% and an Optimum recording power [2] of 3.0 mW.
Compound CCCCN1C(=CC=CC=CC2=[N+](CCCC)c3cc(OC)c(OC)cc3C2(C)C)C(C)(C)c2cc(OC)c(OC)cc21 [Preparation Example 11] has an Absorptivity ([1]; listed as Dye of Prep. Ex. 11) of 18%, a Reflectivity ([1]; listed as Dye of Prep. Ex. 11) of 40% and an Optimum recording power ([2]; listed as Dye of Prep. Ex. 11) of 2.8 mW.
CCCCN1C(=CC=CC=CC2=[N+](CCCC)c3cc(OC)c(OC)cc3C2(C)C)C(C)(C)c2cc(OC)c(OC)cc21 [Preparation Example 12] gave an Absorptivity ([1]; listed as Dye of Prep. Ex. 12) of 19%, a Reflectivity ([1]; listed as Dye of Prep. Ex. 12) of 41% and an Optimum recording power ([2]; listed as Dye of Prep. Ex. 12) of 2.6 mW.
COCCN1C(=CC=CC=CC2=[N+](CCOC)c3c(OC)cc(OC)cc3C2(C)C)C(C)(C)c2cc(OC)cc(OC)c21 [Preparation Example 14] showed an Absorptivity [1] of 18%, a Reflectivity [1] of 41% and an Optimum recording power [2] of 2.6 mW.
